From patent publication US20060030015A1 (published 2006)
No constants are given. Whether binding was seen depends on the method and setting. Some results given as binding are weak or reduced against the parent protein; the word gives no strength.

Biological target: light chain of antibody 41S-2 (41S-2-L)
Assay: ELISA screening of hybridomas

binding: binds
B1: i41-7 intact antibody (antibody, V domains shown)
VH: EIQLQQSGPELVRPGASVKVSCKASGYSFTNSIMYWVRQSHGKSLEWIGYIDPYNGGTSYNQKFKGKATLTVDKSSSTAFMHLNSLTSEDSAVYFCARFIVVVADVMDYWGQGTSVTVSS
VL: DIVMTQSHKFMSTSVGDRVSITCKASQDVSTAVAWYQQKPGQSPKLLIYWASTRHTEVPDRFTGSGSGTDYTLTISSVQAEDLALYYCQQHYNTPLTFGAGTKLELKR
